Data published in PMC8037086.
No constants are given. Whether binding was seen depends on the method and setting.

Assays:
[1] = target: Aha1's N-terminal domain (Aha1^28−162) (human) (UniProt O95433); assay: NMR titration; 1H-15N-HSQC of 15N-labeled Aha1^28−162 or 15N-labeled Aha1^204−335 without or with equal molar of the unlabeled other domain; 20 mM Tris/HCl, 150 mM KCl, 0.5 mM EDTA, 5 mM β-mercaptoethanol, 10% D2O, pH 7.5; 25 °C; both purified
[2] = target: Aha1's C-terminal domain (Aha1^204−335) (human) (UniProt O95433); assay: as above

Aha1's C-terminal domain (Aha1^204−335) (from UniProt O95433-1 204-335) (domain or fragment)
binding [1]: no binding (tested: equal molar of unlabeled Aha1^204−335)

Aha1's N-terminal domain (Aha1^28−162) (from UniProt O95433-1 28-162) (domain or fragment)
binding [2]: no binding (tested: equal molar of unlabeled Aha1^28−162)
